These are yes or no findings as the source states them, for the method shown. In cells and extracts the contact can be indirect. Binding calls can cover weak binding; strength is not graded here.
Target: T1, Argininosuccinate synthase 1 (ASS1) (human (cDNA of HeLa cells)) (UniProt P00966)
T1 sequence: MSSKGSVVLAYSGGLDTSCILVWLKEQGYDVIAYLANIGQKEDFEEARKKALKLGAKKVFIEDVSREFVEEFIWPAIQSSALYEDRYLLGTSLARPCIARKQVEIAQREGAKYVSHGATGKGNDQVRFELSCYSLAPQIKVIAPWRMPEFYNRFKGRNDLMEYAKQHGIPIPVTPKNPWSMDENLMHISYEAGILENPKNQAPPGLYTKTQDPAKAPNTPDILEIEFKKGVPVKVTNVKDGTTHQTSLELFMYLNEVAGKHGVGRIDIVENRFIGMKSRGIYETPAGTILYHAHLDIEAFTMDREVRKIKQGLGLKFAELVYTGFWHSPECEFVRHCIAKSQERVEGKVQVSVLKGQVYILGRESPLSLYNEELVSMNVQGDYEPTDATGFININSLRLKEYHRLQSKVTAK
Assay: co-IP

**Q.** Which binding does the source give for “Coxsackievirus group B3 (CVB3) capsid protein VP2” here?
**A.** Its binding is “binds”.

— publication doi:10.1101/2024.05.08.593129
